Measured data: PubChem BioAssay AID1224828 (NIAID, 2016)

Assay: 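Find genes required for NF-kappaB p65 moving into the nucleus after LPS in mouse macrophages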 (primary screen)
Cell system: mouse RAW264.7 G9 macrophage reporter cells (GFP-p65, Tnf promoter-mCherry)
Reagents: siRNA pool against mouse genes, 100 nM
Duration: 2 days siRNA transfection, then 40 min LPS before fixation
Challenge: LPS (Salmonella minnesota R595) at 10 ng/ml
Detection: 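Microscopy ratio of nuclear to perinuclear-ring GFP-p65 signal, scaled to the plate median; gene score is the average of two replicate robust z-scores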
Direction: p65 translocation robust z-score: higher = more nuclear NF-kappaB p65 after LPS than the plate median; nuclear/cytoplasmic p65 ratio: higher = more nuclear NF-kappaB p65
Active means: 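Active if robust z is above 3.3 (negative regulators) or below -1.56, the Tlr4 control median (positive regulators); activity score 50 or more; control wells not called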
Meaning of the calls: active = hit (p65 shift raised or lowered); inactive = no clear change
The whole screen tested about 17,000 reagents; this is a part drawn at random. Over the whole deposit, 762 (4.5%) were called active. 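Active calls include both raised and lowered p65 entry, mostly lowered; wells with fewer than 50 cells lack a z-score.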 The raw values are shown without normalisation. Entries without a mark were called inactive.

no.	gene symbol	p65 translocation robust z-score	nuclear/cytoplasmic p65 ratio, rep 1	nuclear/cytoplasmic p65 ratio, rep 2	low cell count flag
1	Tmprss7 (transmembrane serine protease 7)	-0.13	1.54	1.54	enough cells to score
2	Zfp2 (zinc finger protein 2)	-0.55	1.33	1.2	enough cells to score
3	Gjb3 (gap junction protein, beta 3)	0.05	1.35	1.46	enough cells to score
4	H3c11 (H3 clustered histone 11)		1.92	1.62	fewer than 50 cells per well; well left out of scoring
5	Or2z9 (olfactory receptor family 2 subfamily Z member 9)	-0.1	1.59	1.32	enough cells to score
6	Zfp82 (zinc finger protein 82)	0.66	1.61	1.23	enough cells to score
7	Ano4 (anoctamin 4)		1.23	0	fewer than 50 cells per well; well left out of scoring
8	Gusb (glucuronidase, beta)	-1.06	1.23	1.29	enough cells to score
9	Cmss1 (cms small ribosomal subunit 1)	-2.03 (active)	1.16	1.16	enough cells to score
10	Klk1b26 (kallikrein 1-related petidase b26)	-0.87	1.2	1.52	enough cells to score
11	Or8k3b (olfactory receptor family 8 subfamily K member 3B)		1.77	1.47	fewer than 50 cells per well; well left out of scoring
12	Ddhd1 (DDHD domain containing 1)		1.15	1.13	fewer than 50 cells per well; well left out of scoring
13	Bmp6 (bone morphogenetic protein 6)	0.07	1.68	1.57	enough cells to score
14	Mtg2 (mitochondrial ribosome associated GTPase 2)		1.42	1.55	fewer than 50 cells per well; well left out of scoring
15	Megf11 (multiple EGF-like-domains 11)	-0.61	1.37	1.33	enough cells to score
16	Asb4 (ankyrin repeat and SOCS box-containing 4)	-1.29	1.32	1.42	enough cells to score
17	Utp3 (UTP3 small subunit processome component)	-1.13	1.42	1.59	enough cells to score
18	Knop1 (lysine rich nucleolar protein 1)		1.55	1.58	fewer than 50 cells per well; well left out of scoring
19	D830016O14Rik (RIKEN cDNA D830016O14 gene)	1.06	1.72	1.71	enough cells to score
20	Dipk1b (divergent protein kinase domain 1B)	1.39	1.73	1.42	enough cells to score
21	Sir2l1 (SIR2 antiphage like 1)	2.27	1.74	1.97	enough cells to score
22	Mgat4f (MGAT4 family, member F)		1.28	1.05	fewer than 50 cells per well; well left out of scoring
23	Pomt2 (protein-O-mannosyltransferase 2)		1.22	1.15	fewer than 50 cells per well; well left out of scoring
24	Myl2 (myosin, light polypeptide 2, regulatory, cardiac, slow)	-0.24	1.4	1.32	enough cells to score
25	Sytl3 (synaptotagmin-like 3)		1.44	1.28	fewer than 50 cells per well; well left out of scoring
26	Fundc1 (FUN14 domain containing 1)	0.39	1.55	1.55	enough cells to score
27	Tspan11 (tetraspanin 11)	1.45	1.72	1.67	enough cells to score
28	Cdk4 (cyclin dependent kinase 4)	0.63	1.81	1.45	enough cells to score
29	Bhmt2 (betaine-homocysteine methyltransferase 2)		1.39	1.26	fewer than 50 cells per well; well left out of scoring
30	Or9g4b (olfactory receptor family 9 subfamily G member 4B)	-0.27	1.67	1.49	enough cells to score
31	Hyal3 (hyaluronoglucosaminidase 3)	-1.83 (active)	1.28	1.19	enough cells to score
32	Gsr (glutathione reductase)	-0.44	1.34	1.35	enough cells to score
33	Gprc5d (G protein-coupled receptor, family C, group 5, member D)	0.62	1.59	1.66	enough cells to score
34	Utp11 (UTP11 small subunit processome component)	-1.43	1.25	1.24	enough cells to score
35	Rpl26 (ribosomal protein L26)	-1.58 (active)	1.16	1.08	enough cells to score
36	Bpifa5 (BPI fold containing family A, member 5)	-1.77 (active)	1.13	1.07	enough cells to score
37	Hoxa5 (homeobox A5)	0.65	1.72	1.66	enough cells to score
38	Mpo (myeloperoxidase)	0.9	1.61	1.41	enough cells to score
39	Prl3a1 (prolactin family 3, subfamily a, member 1)	-0.59	1.29	1.15	enough cells to score
40	Polr2m (polymerase (RNA) II (DNA directed) polypeptide M)	0.42	1.52	1.4	enough cells to score
41	Tmem215 (transmembrane protein 215)	0.9	1.56	1.59	enough cells to score
42	Fgf2os (fibroblast growth factor 2, opposite strand)	-0.89	1.38	1.28	enough cells to score
43	Ptpn5 (protein tyrosine phosphatase, non-receptor type 5)	-0.56	1.66	1.25	enough cells to score
44	Hsd3b5	1.04	1.71	1.56	enough cells to score
45	Zfp553 (zinc finger protein 553)	-0.3	1.39	1.2	enough cells to score
46	Pnkp (polynucleotide kinase 3'- phosphatase)	-1.25	1.42	1.22	enough cells to score
47	Or11g7 (olfactory receptor family 11 subfamily G member 7)	0.44	1.34	1.32	enough cells to score
48	Exoc8 (exocyst complex component 8)	-0.13	1.5	1.76	enough cells to score
49	Otoa (otoancorin)	1.68	1.69	1.62	enough cells to score
50	Enah (ENAH actin regulator)	0.17	1.59	1.51	enough cells to score
51	Yipf6 (Yip1 domain family, member 6)	0.15	1.4	1.55	enough cells to score
52	Pth (parathyroid hormone)	-0.69	1.47	1.42	enough cells to score
53	Herc1	0.09	1.49	1.35	enough cells to score
54	Bid (BH3 interacting domain death agonist)	0.09	1.64	1.62	enough cells to score
55	Nr4a2 (nuclear receptor subfamily 4, group A, member 2)	1.22	1.58	1.6	enough cells to score
56	Bub3 (BUB3 mitotic checkpoint protein)	-1.26	1.48	1.38	enough cells to score
57	Npm1 (nucleophosmin 1)		1.35	1.93	fewer than 50 cells per well; well left out of scoring
58	Prss40 (serine protease 40)		1.44	1.12	fewer than 50 cells per well; well left out of scoring
59	Or5m13b (olfactory receptor family 5 subfamily M member 13B)	-0.26	1.49	1.65	enough cells to score
